Test results from patent publication US20110123523A1.
Results are given in words; binding and its absence hold for the method and conditions named. Some binding calls cover weakened binding; strength is not graded here.

Protein sequences, listed by entry. Tags and fused reporters are not part of them. Residues count along the entry.
UniProt P21860, residues 20-643: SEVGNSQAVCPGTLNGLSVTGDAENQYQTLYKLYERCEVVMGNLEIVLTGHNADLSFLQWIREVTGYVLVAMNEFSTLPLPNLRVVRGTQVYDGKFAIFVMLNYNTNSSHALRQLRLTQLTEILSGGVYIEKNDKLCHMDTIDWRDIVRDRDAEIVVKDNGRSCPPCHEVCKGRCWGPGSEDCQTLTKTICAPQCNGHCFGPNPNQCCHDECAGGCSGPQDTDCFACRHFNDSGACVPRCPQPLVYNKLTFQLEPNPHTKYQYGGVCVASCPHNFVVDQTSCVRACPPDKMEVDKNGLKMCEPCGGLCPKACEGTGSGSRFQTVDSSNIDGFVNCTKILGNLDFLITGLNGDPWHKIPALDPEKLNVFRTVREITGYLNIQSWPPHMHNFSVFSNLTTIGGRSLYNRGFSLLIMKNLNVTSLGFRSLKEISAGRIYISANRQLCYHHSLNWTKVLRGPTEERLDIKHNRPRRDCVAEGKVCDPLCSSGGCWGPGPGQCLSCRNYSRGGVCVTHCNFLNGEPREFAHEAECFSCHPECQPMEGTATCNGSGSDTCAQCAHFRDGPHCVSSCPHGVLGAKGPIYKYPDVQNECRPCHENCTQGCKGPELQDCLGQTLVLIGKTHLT

Target: ErbB3 as used in the surface plasmon resonance (Flexchip) and KinExA assays (human) (UniProt P21860)
Assay: surface plasmon resonance (Flexchip)

B1: Antibody #3 (Ab #3), human anti-ErbB3 antibody (antibody, V domains shown)
VH: EVQLLESGGGLVQPGGSLRLSCAASGFTFSAYNMRWVRQAPGKGLEWVSVIYPSGGATRYADSVKGRFTISRDNSKNTLYLQMNSLRAEDTAVYYCARGYYYYGMDVWGQGTLVTVSS
VL: QSVLTQPPSASGTPGQRVTISCSGSDSNIGRNYIYWYQQFPGTAPKLLIYRNNQRPSGVPDRISGSKSGTSASLAISGLRSEDEAEYHCGTWDDSLSGPVFGGGTKLTVL
For B1, the binding was “binds”.
